Source: PubChem BioAssay AID493014 (National Center for Advancing Translational Sciences (NCATS), 2011)
The other results are listed elsewhere or left out. These are further read-outs of the screen, such as a control signal, another cell line or another target. No call is given for them. The list favours compounds with an active or inconclusive main result. Potencies come from curve fits of mixed quality, noted in brackets.

Test: qHTS Assay to Find Inhibitors of Chronic Active B-Cell Receptor Signaling
Details: ABC-DLBCL IkBa-CBG/CBR reporter, luminescence ratio (green luciferase fused to IkBa over red control in TMD8 lymphoma cells), 4 h
Method in brief: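 Doxycycline induced both beetle luciferases in TMD8 lymphoma cells; IKK-driven degradation limits the IkappaBalpha-fused green signal, while red luminescence normalises for cell number and nonspecific effects. Compounds tested up to 46 uM, 4 hrs.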

[1] = measured here: CBR red luminescence, cell number
[2] = measured here: IkBa-CBG green luminescence

| Structure (SMILES) | AC50 [1] | AC50 [2] |
| --- | --- | --- |
| O=C1CN(C(=O)COC(=O)[C@@H]2CC(O)CN2S(=O)(=O)c2ccc(Cl)cc2)c2ccccc2N1 (stereo not given in full) | 4.11 µM [rising, partial curve, poor fit] |  |
| O=C(NC(=S)NCCC1=CCCCC1)c1ccccc1Br | 0.1 µM [rising, full curve, poor fit] |  |
| O=C(Cc1ccccc1)NCC(=O)OCC(=O)c1ccc(Cl)c([N+](=O)[O-])c1 | 29.1 µM [falling, single point] |  |
| Cc1ccc(C(=O)OCc2nc3ccsc3c(=O)[nH]2)o1 | 20.6 µM [falling, partial curve] |  |
| COc1ncnc2c1sc1nc(-c3ccccc3)c3c(c12)CCCC3 | 0.58 µM [rising, full curve, poor fit] |  |
| Nc1nc(CSc2ncn(-c3ccccc3)n2)cs1 | 18.4 µM [falling, single point] |  |
| FC(F)Sc1ccc(NC(=S)N2CCN(c3ccccn3)CC2)cc1 | 15.8 µM [falling, single point] |  |
| O=C(Cc1cn(Cc2cccc(Cl)c2)c2ccccc12)N1CCCCCC1 | 2.31 µM [falling, partial curve, poor fit] |  |
| CCOC(=O)c1sc(NC(=O)c2ccc(S(=O)(=O)N(CC)CC)cc2)nc1C | 1.46 µM [falling, full curve] |  |
| COc1ccc(NC(=O)c2sc(N3CCOCC3)nc2-c2ccccc2)c(OC)c1 | 8.2 µM [falling, partial curve] |  |
| COc1ccc(CCNC(=O)C2Cc3ccccc3C(=O)O2)cc1 (stereo not given) | 11.2 µM [falling, single point] |  |
| COc1ccc(C)cc1NS(=O)(=O)c1ccc2c(c1)NC(=O)C(C)S2 (stereo not given) | 35.5 µM [falling, single point] |  |
| COc1ccc([C@H]2CC(=O)C=C(c3ccc(-c4ccccc4)c(F)c3)C2)cc1OC | 0.58 µM [rising, full curve, poor fit] |  |
| COc1cccc(N2CCN(C(=O)c3cc(-c4ccc(F)cc4)[nH]c3C)CC2)c1 | 3.55 µM [falling, full curve, poor fit] |  |
| O=C(O)/C(=C\c1ccccc1OC(F)F)Sc1nnc(-c2ccc(F)cc2)o1 | 7.94 µM [falling, partial curve, poor fit] |  |
| CCOCCCNC(=O)c1cc2c(s1)-c1ccccc1SC2 | 12.6 µM [falling, single point] |  |
| N/C(=N\OC(=O)Nc1ccc(Cl)cc1)c1ncc(C(F)(F)F)cc1Cl | 0.651 µM [rising, full curve, poor fit] |  |
| Cc1ccc2nc(-c3cccc(N)c3)[nH]c2c1 | 10.3 µM [falling, partial curve] |  |
| COc1ccc(/C=C/C(=O)c2ccc3c4c(cccc24)CC3)cc1OC | 9.2 µM [falling, partial curve] |  |
| N=c1c2c(-c3ccccc3)c(-c3ccccc3)n(Cc3ccccc3)c2ncn1CCCn1ccnc1 | 5.62 µM [falling, full curve, poor fit] |  |
| COc1ccc(CCNC(=O)CCNC(=O)N2CC(=O)Nc3ccccc32)cc1OC | 3.16 µM [rising, single point] |  |
| O=C(O)CC1(CC(=O)Nc2ccc3ccccc3n2)CCCCC1 | 15.8 µM [falling, single point] |  |

Part of the list above in order of length of the SMILES, rising.

| Structure (SMILES) | AC50 [1] | AC50 [2] |
| --- | --- | --- |
| O=C(O)/C(=C\c1ccccc1OC(F)F)Sc1nnc(-c2ccc(F)cc2)o1 | 7.94 µM [falling, partial curve, poor fit] |  |
| COc1cccc(N2CCN(C(=O)c3cc(-c4ccc(F)cc4)[nH]c3C)CC2)c1 | 3.55 µM [falling, full curve, poor fit] |  |
| O=C1CN(C(=O)COC(=O)[C@@H]2CC(O)CN2S(=O)(=O)c2ccc(Cl)cc2)c2ccccc2N1 (stereo not given in full) | 4.11 µM [rising, partial curve, poor fit] |  |

The list goes on:

| Structure (SMILES) | AC50 [1] | AC50 [2] |
| --- | --- | --- |
| CC(C)c1ccc(/C=C2\NC(=O)NC2=O)cc1 | 6.31 µM [rising, full curve, poor fit] |  |
| COc1ccc(OC)c(S(=O)(=O)NCC(c2ccco2)S(=O)(=O)c2ccccc2)c1 (stereo not given) | 0.562 µM [falling, full curve, poor fit] |  |
| O=C(Nc1nc(-c2ccc3ccccc3c2)cs1)c1ccc(N2C(=O)CCC2=O)cc1 | 0.517 µM [rising, full curve, poor fit] |  |
| CCOC(=O)CN1C(=O)C(CC)Oc2ccc(Cl)cc21 (stereo not given) | 1.58 µM [rising, partial curve, poor fit] |  |
| CC1=C(C(=O)OCc2ccccc2)C(c2cccc([N+](=O)[O-])c2)NC(=O)N1 (stereo not given) | 7.94 µM [falling, partial curve, poor fit] |  |
| Cc1cc(NC(=O)CSc2nc3ccccc3c(=O)n2CCCC(=O)NCc2ccco2)n[nH]1 | 35.5 µM [falling, single point] |  |
| CCCCn1c(=N)n(CC(=O)c2ccc(Br)s2)c2ccccc21 | 7.94 µM [falling, partial curve] |  |
| Clc1ccc(-n2ncc3c(NCCCn4ccnc4)ncnc32)cc1 | 3.26 µM [falling, single point] |  |
| O=C(Nc1cccc(C(F)(F)F)c1)C1CCCO1 (stereo not given) | 12.6 µM [rising, single point] |  |
| CCOC(=O)C1=C(C)NC(=S)NC1c1ccc(-c2cccc(Cl)c2C)o1 (stereo not given) | 10 µM [falling, partial curve, poor fit] |  |
| C=C(C)COc1ccc(-c2[nH]ncc2Oc2ccc(OC)cc2)c(O)c1 | 6.31 µM [rising, full curve, poor fit] |  |
| O=C(CCc1ccccc1)Nc1cc(C(F)(F)F)ccc1Cl | 3.55 µM [rising, partial curve, poor fit] |  |
| O=C(Nc1nnc(Cc2ccccc2F)s1)Nc1ccccc1F | 0.316 µM [rising, full curve] |  |
| COc1ccc(NC(=O)C(=O)NCCCO)cc1Cl | 1.41 µM [rising, partial curve, poor fit] |  |
| C=CCOc1ccc(C(=O)NC2CCCCC2)cc1 | 7.31 µM [falling, partial curve] |  |
| CC(C)Cn1c(SCC(=O)Nc2cccc(S(N)(=O)=O)c2)nc2ccccc2c1=O | 17.8 µM [falling, partial curve, poor fit] |  |
| CCCn1c(=S)[nH]c2ccc(C(F)(F)F)cc21 | 22.4 µM [falling, single point] |  |
| Cc1nc2ccc(NC(=O)Cc3c(F)cccc3Cl)cc2s1 | 15.8 µM [falling, single point] |  |
| Cc1ccc(NS(=O)(=O)c2ccc(Cl)c(NC(=S)NC(=O)C3CCCCC3)c2)cc1Cl | 23.1 µM [falling, single point] |  |
| O=C(CCCN1C(=O)/C(=C/c2ccccc2OC(F)F)SC1=S)Nc1cccnc1 | 14.6 µM [falling, partial curve] | 5.17 µM [falling, partial curve, poor fit] |
| COc1ccccc1-c1nnc(NC(=O)CCS(=O)(=O)c2ccccc2)o1 | 11.2 µM [falling, single point] |  |
| O=C1CN(C(=O)CSc2nc3ccccc3c(=O)n2Cc2ccc(F)cc2)c2ccccc2N1 | 25.9 µM [falling, partial curve] |  |

| Structure (SMILES) | AC50 [1] | AC50 [2] |
| --- | --- | --- |
| O=C(Nc1cnn(Cc2ccc(F)cc2)c1)c1cc(-c2cccs2)on1 | 32.6 µM [rising, single point] |  |
| C/C(=N/NC(=O)c1cc(C(C)C)[nH]n1)c1cccs1 | 12.6 µM [falling, partial curve] |  |
| CCCCCNc1nc2ccccc2nc1NS(=O)(=O)c1cccs1 | 1.03 µM [rising, full curve, poor fit] |  |
| O=C(NCCc1ccc(Cl)cc1)c1ccc2c(c1)OCO2 | 20 µM [falling, partial curve, poor fit] |  |
| CC(=O)[C@@]1(O)CC[C@H]2[C@@H]3CCC4=CC(=O)CC[C@]4(C)[C@H]3[C@@H](O)C[C@@]21C | 0.282 µM [rising, full curve, poor fit] |  |
| O=C(CCl)Nc1cn(-c2ccccc2)nc1-c1ccc(F)cc1 | 11.2 µM [falling, partial curve] |  |
| CN(CC(=O)Nc1nc2ccccc2s1)S(=O)(=O)c1ccc(Cl)cc1 | 3.66 µM [rising, partial curve, poor fit] |  |
| O=C(Cc1ccc(F)cc1)Nc1cccc2cccnc12 | 2.06 µM [rising, partial curve, poor fit] |  |
| COC(=O)c1cccc(NC(=O)Nc2ccc(Cl)c(Cl)c2)c1 | 35.5 µM [falling, single point] |  |
| COCCNS(=O)(=O)c1cccn1-c1ncc(C(F)(F)F)cc1Cl | 0.651 µM [rising, partial curve, poor fit] |  |
| COCC(=O)Nc1ccc2nc3n(c(=O)c2c1)CCCCC3 | 31.6 µM [rising, single point] |  |
| CCCC(=O)Nn1cnc2c(c1=O)C1(CCCCC1)Cc1ccccc1-2 | 23.1 µM [falling, single point] |  |
| O=C(NCCc1csc(-c2cccnc2)n1)c1ccc(Br)o1 | 13 µM [falling, partial curve, poor fit] |  |
| CCCCCCNC(=O)N[C@H](C(=O)NCCC[C@H]1CN2C(=NC[C@H]2C)N1CCC(c1ccccc1)c1ccccc1)C(C)O (stereo not given in full) |  | 15.8 µM [falling, single point] |
| COCCCNCCCCOc1ccccc1-c1ccccc1 | 13 µM [falling, partial curve] |  |
| CC(C)(C)NC(=S)Nc1ccc(Br)cc1 | 4.47 µM [rising, full curve, poor fit] |  |
| CCC1=NN2C(=N)/C(=C\c3cccn3-c3ccc(C)cc3C)C(=O)N=C2S1 | 35.5 µM [falling, single point] |  |
| CCCNC(=O)/C=C/c1ccc(C(C)C)cc1 | 5.17 µM [rising, full curve] |  |
| Cc1c(CCC(=O)O)c(=O)oc2cc(OCc3ccccc3Br)ccc12 | 25.1 µM [falling, single point] |  |
| N#CC1(NC(=O)COC(=O)c2ccccc2SCC(=O)N2CCCC2)CCCCC1 | 35.5 µM [rising, single point] |  |
